Reference: the supplement of paper PMC4604168 (melanoma cell lines)
This is one part of the list. Single values are uncertain, as repeats are few or missing.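 The apoptosis fraction was the count of cleaved-PARP antibody-stained nuclei relative to all DNA-stained nuclei, imaged in 1,536-well plates. Screening doses were set so most cells survived, and baseline and induced cleaved-PARP levels vary greatly across cell lines.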

Tested on: SkMel2
Test: cleaved PARP positive nuclei fraction relative to DMSO control; melanoma cells; higher = more apoptosis
Conditions: library dose: low library concentration; 72 h

Compound	cleaved PARP positive nuclei fraction
C=CCNC1=C2C[C@@H](C)C[C@H](OC)[C@H](O)[C@@H](C)/C=C(\C)[C@H](OC(N)=O)[C@@H](OC)/C=C\C=C(/C)C(=O)NC(=CC1=O)C2=O [Tanespimycin] + OCc1c[nH]c2ccccc12 [Indole-3-carbinol] (first compound 0.002 µM, partner dose 0.8 µM)	109%
C=CCNC1=C2C[C@@H](C)C[C@H](OC)[C@H](O)[C@@H](C)/C=C(\C)[C@H](OC(N)=O)[C@@H](OC)/C=C\C=C(/C)C(=O)NC(=CC1=O)C2=O [Tanespimycin] + CC(=O)c1c(C)c2cnc(Nc3ccc(N4CCNCC4)cn3)nc2n(C2CCCC2)c1=O [palbociclib] (first compound 0.002 µM, partner dose 0.04 µM)	43.5%
C#Cc1cccc(Nc2ncnc3cc(OCCOC)c(OCCOC)cc23)c1 [erlotinib] + Cn1c(Nc2ccc(C(F)(F)F)cc2)nc2cc(Oc3ccnc(-c4ncc(C(F)(F)F)[nH]4)c3)ccc21 [CHIR265] (first compound 0.8 µM, partner dose 0.08 µM)	106%
C#Cc1cccc(Nc2ncnc3cc(OCCOC)c(OCCOC)cc23)c1 [erlotinib] + Cn1nnc2c(C(N)=O)ncn2c1=O [temozolomide] (first compound 0.8 µM, partner dose 2 µM)	100%
Cn1c(Nc2ccc(C(F)(F)F)cc2)nc2cc(Oc3ccnc(-c4ncc(C(F)(F)F)[nH]4)c3)ccc21 + COCC[n+]1c2c(n(Cc3cnccn3)c1C)C(=O)c1ccccc1C2=O [YM155] (first compound 0.08 µM, partner dose 0.0004 µM)	466%
Clc1ccc(Nc2nnc(Cc3ccncc3)c3ccccc23)cc1 [vatalanib] + C#Cc1cccc(Nc2ncnc3cc(OCCOC)c(OCCOC)cc23)c1 [erlotinib] (first compound 2 µM, partner dose 0.8 µM)	75%
C=CCNC1=C2C[C@@H](C)C[C@H](OC)[C@H](O)[C@@H](C)/C=C(\C)[C@H](OC(N)=O)[C@@H](OC)/C=C\C=C(/C)C(=O)NC(=CC1=O)C2=O [Tanespimycin] + CC(C)CCN1c2nc(Nc3cc(F)c(O)c(F)c3)ncc2N(C)C(=O)C1C [BID1870] (first compound 0.002 µM, partner dose 0.2 µM)	114%

Two consecutive entries already listed, quoted:
Compound	cleaved PARP positive nuclei fraction
C=CCNC1=C2C[C@@H](C)C[C@H](OC)[C@H](O)[C@@H](C)/C=C(\C)[C@H](OC(N)=O)[C@@H](OC)/C=C\C=C(/C)C(=O)NC(=CC1=O)C2=O [Tanespimycin] + CC(=O)c1c(C)c2cnc(Nc3ccc(N4CCNCC4)cn3)nc2n(C2CCCC2)c1=O [palbociclib] (first compound 0.002 µM, partner dose 0.04 µM)	43.5%
C#Cc1cccc(Nc2ncnc3cc(OCCOC)c(OCCOC)cc23)c1 [erlotinib] + Cn1c(Nc2ccc(C(F)(F)F)cc2)nc2cc(Oc3ccnc(-c4ncc(C(F)(F)F)[nH]4)c3)ccc21 [CHIR265] (first compound 0.8 µM, partner dose 0.08 µM)	106%

Tested on: SkMel30
Test: as above
Conditions: library dose: low library concentration; 72 h

Compound	cleaved PARP positive nuclei fraction
CC(=O)c1c(C)c2cnc(Nc3ccc(N4CCNCC4)cn3)nc2n(C2CCCC2)c1=O [palbociclib] + Nc1cccc2c1CN(C1CCC(=O)NC1=O)C2=O [lenalidomide] (first compound 0.04 µM, partner dose 1 µM)	53.1%
CC(=O)c1c(C)c2cnc(Nc3ccc(N4CCNCC4)cn3)nc2n(C2CCCC2)c1=O [palbociclib] + COc1ccc(Cl)c(Nc2nc3ccccc3nc2NS(=O)(=O)c2cccc(NC(=O)C(C)(C)N)c2)c1 [XL147] (first compound 0.04 µM, partner dose 0.8 µM)	23.1%
CC(=O)c1c(C)c2cnc(Nc3ccc(N4CCNCC4)cn3)nc2n(C2CCCC2)c1=O [palbociclib] + Cc1nc(Nc2ncc(C(=O)Nc3c(C)cccc3Cl)s2)cc(N2CCN(CCO)CC2)n1 [dasatanib] (first compound 0.04 µM, partner dose 0.004 µM)	83.5%
C=CCNC1=C2C[C@@H](C)C[C@H](OC)[C@H](O)[C@@H](C)/C=C(\C)[C@H](OC(N)=O)[C@@H](OC)/C=C\C=C(/C)C(=O)NC(=CC1=O)C2=O [Tanespimycin] + COc1ccc(Cl)c(Nc2nc3ccccc3nc2NS(=O)(=O)c2cccc(NC(=O)C(C)(C)N)c2)c1 [XL147] (first compound 0.002 µM, partner dose 0.8 µM)	66.1%
OCc1c[nH]c2ccccc12 [Indole-3-carbinol] + C#Cc1cccc(Nc2ncnc3cc(OCCOC)c(OCCOC)cc23)c1 [erlotinib] (first compound 0.8 µM, partner dose 0.8 µM)	66.8%
CC(=O)c1c(C)c2cnc(Nc3ccc(N4CCNCC4)cn3)nc2n(C2CCCC2)c1=O [palbociclib] + C[C@]1(c2nc3c(C(N)=O)cccc3[nH]2)CCCN1 [Veliparib] (first compound 0.04 µM, partner dose 1.4 µM)	84.2%
C=CCNC1=C2C[C@@H](C)C[C@H](OC)[C@H](O)[C@@H](C)/C=C(\C)[C@H](OC(N)=O)[C@@H](OC)/C=C\C=C(/C)C(=O)NC(=CC1=O)C2=O [Tanespimycin] + C#Cc1cccc(Nc2ncnc3cc(OCCOC)c(OCCOC)cc23)c1 [erlotinib] (first compound 0.002 µM, partner dose 0.8 µM)	60.1%
C=CCNC1=C2C[C@@H](C)C[C@H](OC)[C@H](O)[C@@H](C)/C=C(\C)[C@H](OC(N)=O)[C@@H](OC)/C=C\C=C(/C)C(=O)NC(=CC1=O)C2=O [Tanespimycin] + Clc1ccc(Nc2nnc(Cc3ccncc3)c3ccccc23)cc1 [vatalanib] (first compound 0.002 µM, partner dose 2 µM)	61.5%
COCC[n+]1c2c(n(Cc3cnccn3)c1C)C(=O)c1ccccc1C2=O + Nc1cccc2c1CN(C1CCC(=O)NC1=O)C2=O [lenalidomide] (first compound 0.0004 µM, partner dose 1 µM)	49.6%
C#Cc1cccc(Nc2ncnc3cc(OCCOC)c(OCCOC)cc23)c1 [erlotinib] + C[C@]1(c2nc3c(C(N)=O)cccc3[nH]2)CCCN1 [Veliparib] (first compound 0.8 µM, partner dose 1.4 µM)	241%
CC(=O)c1c(C)c2cnc(Nc3ccc(N4CCNCC4)cn3)nc2n(C2CCCC2)c1=O [palbociclib] + C#Cc1cccc(Nc2ncnc3cc(OCCOC)c(OCCOC)cc23)c1 [erlotinib] (first compound 0.04 µM, partner dose 0.8 µM)	35.3%
Nc1cccc2c1CN(C1CCC(=O)NC1=O)C2=O (stereo unspecified) [lenalidomide] + COc1cc(Nc2ncc(F)c(Nc3ccc4c(n3)NC(=O)C(C)(C)O4)n2)cc(OC)c1OC [Tamatinib] (first compound 1 µM, partner dose 0.4 µM)	117%
C[C@]1(c2nc3c(C(N)=O)cccc3[nH]2)CCCN1 [Veliparib] + CC(C)(C)c1cnc(CSc2cnc(NC(=O)C3CCNCC3)s2)o1 [SNS-032] (first compound 1.4 µM, partner dose 0.01 µM)	780%
Cc1nc(Nc2ncc(C(=O)Nc3c(C)cccc3Cl)s2)cc(N2CCN(CCO)CC2)n1 [dasatanib] + Nc1cccc2c1CN(C1CCC(=O)NC1=O)C2=O [lenalidomide] (first compound 0.004 µM, partner dose 1 µM)	23.1%
CC(=O)c1c(C)c2cnc(Nc3ccc(N4CCNCC4)cn3)nc2n(C2CCCC2)c1=O [palbociclib] + OCc1c[nH]c2ccccc12 [Indole-3-carbinol] (first compound 0.04 µM, partner dose 0.8 µM)	120%
Clc1ccc(Nc2nnc(Cc3ccncc3)c3ccccc23)cc1 [vatalanib] + COCC[n+]1c2c(n(Cc3cnccn3)c1C)C(=O)c1ccccc1C2=O [YM155] (first compound 2 µM, partner dose 0.0004 µM)	27.9%
CC1(C)NC(=O)N(c2ccc([N+](=O)[O-])c(C(F)(F)F)c2)C1=O [nilutamide] + O=C(Nc1cccc(Cl)c1)Nc1ncc(CCNc2ncnc3ccsc23)s1 [SNS314] (first compound 1 µM, partner dose 0.0008 µM)	52.4%
Nc1cccc2c1CN(C1CCC(=O)NC1=O)C2=O (stereo unspecified) [lenalidomide] + C[C@]1(c2nc3c(C(N)=O)cccc3[nH]2)CCCN1 [Veliparib] (first compound 1 µM, partner dose 1.4 µM)	109%
OCc1c[nH]c2ccccc12 [Indole-3-carbinol] + COc1ccc(Cl)c(Nc2nc3ccccc3nc2NS(=O)(=O)c2cccc(NC(=O)C(C)(C)N)c2)c1 [XL147] (first compound 0.8 µM, partner dose 0.8 µM)	57.7%
CC(=O)c1c(C)c2cnc(Nc3ccc(N4CCNCC4)cn3)nc2n(C2CCCC2)c1=O [palbociclib] + Clc1ccc(Nc2nnc(Cc3ccncc3)c3ccccc23)cc1 [vatalanib] (first compound 0.04 µM, partner dose 2 µM)	100%
Cn1nnc2c(C(N)=O)ncn2c1=O [temozolomide] + C[C@@H]1CCN(C(=O)CC#N)C[C@@H]1N(C)c1ncnc2[nH]ccc12 [CP690550] (first compound 2 µM, partner dose 1 µM)	80.6%
Cc1nc(Nc2ncc(C(=O)Nc3c(C)cccc3Cl)s2)cc(N2CCN(CCO)CC2)n1 [dasatanib] + Cn1nnc2c(C(N)=O)ncn2c1=O [temozolomide] (first compound 0.004 µM, partner dose 2 µM)	117%
OCc1c[nH]c2ccccc12 [Indole-3-carbinol] + COCC[n+]1c2c(n(Cc3cnccn3)c1C)C(=O)c1ccccc1C2=O [YM155] (first compound 0.8 µM, partner dose 0.0004 µM)	220%
Clc1ccc(Nc2nnc(Cc3ccncc3)c3ccccc23)cc1 [vatalanib] + C=CCn1c(=O)c2cnc(Nc3ccc(N4CCN(C)CC4)cc3)nc2n1-c1cccc(C(C)(C)O)n1 [MK1775] (first compound 2 µM, partner dose 0.02 µM)	65.6%
